# Results are given in words; binding and its absence hold for the method and conditions named. Some binding calls cover weakened binding; strength is not graded here.
# B1: 2TIC105 (VHH)
# VHH: QVQLQESGGGLVQAGGSLRLSCATSTFPFTMNNMGWYRQAPGKERELVAAITNDGSITYTDSVKGRFTISRDNARNTLYLQMNSLKPEDTAVYYCNRGTGPSYPWGQGTQVTVSS
# B2: 3SPC11 (VHH)
# VHH: QVQLQESGGGLVQPGGSLRLSCTASGSIAAFGWYRQAPGKQREFVANMYVGGSIRYSDSVKGRFTISKDNAKNTAYLQMNILKPEDTAVYYCNALVRFEGRNDDYWGQGTQVTVSS
# B3: 3TIC157 (VHH)
# VHH: QVQLQESGGGLMQPGGSLRLSCAGTNFLSSRFEMGWYRQIPGKQRELVARIFRDGNTDYVDSVKGRFTISRDTAKNTIDLQMNNLKPEDTAGYFCHVHILGRDYWGQGTQVTVSS
# B4: 3TIC34 (VHH)
# VHH: QVQLQESGGGLVQAGGSLRLSCAASGGTFSNYGMGWFRQAPGKEREFVATINWSGAITHYADSVKGRFSISRDNAKNTVYLQMNSLKPDDTAVYYCAAVTRYGGYADSRPQWYDSWGQGTQVTVSS
# Target: calreticulin on the surface of HL-60 cells (acute promyelocytic leukemia cell line; ATCC CCL-240) (human) (UniProt P27797)
# Assay: flow cytometry on HL-60 cells, 400 ug/ml nanobody, anti-alpaca-AF647 secondary
row,binding,Binder
1,binds,B1
2,binds,B2
3,binds,B3
4,binds,B4
